# Assay results reported in patent US20150315292A1 (VANDERBILT UNIVERSITY, published 2015).
# No constants are given. Whether binding was seen depends on the method and setting. Binding calls can cover weak binding; strength is not graded here.
# B1: monoclonal anti-human fXII antibody AB042 (antibody, V domains shown)
# VH: EVQLQQSGAELVRPGASVKLSCTASGFNIKDDYMHWVKQRPEQGLEWIGWIDPENGDTEYASKFQGKATITSDTSSNTAYLQLSSLTSEDTAVYYCTENYYGSSFFAYWGQGTLVTVSA
# VL: DIVMTQATPSVPVTPGESVSISCRSSKSLLHSNGITYLYWFLQRPGQSPQRLIYYMSNLASGVPDRFSGRGSGTDFTLRISRVEAEDVGVYYCMQSLEYPYTFGGGTKLEIKR
# notes: Mouse hybridoma IgG raised in fXII knockout mice immunized with human fXII
# Target: baboon factor XII (baboon)
# Assay: Western blot of plasma after SDS-PAGE
binder,measurement,value
B1,binding,binds
